{
  "sequences": {"note": "The chains behind the UniProt entries cited, without tags or fusion partners. Where a name states a change or a piece, a line headed by the entry shows the natural chain unless it says otherwise.", "UniProt P18054": "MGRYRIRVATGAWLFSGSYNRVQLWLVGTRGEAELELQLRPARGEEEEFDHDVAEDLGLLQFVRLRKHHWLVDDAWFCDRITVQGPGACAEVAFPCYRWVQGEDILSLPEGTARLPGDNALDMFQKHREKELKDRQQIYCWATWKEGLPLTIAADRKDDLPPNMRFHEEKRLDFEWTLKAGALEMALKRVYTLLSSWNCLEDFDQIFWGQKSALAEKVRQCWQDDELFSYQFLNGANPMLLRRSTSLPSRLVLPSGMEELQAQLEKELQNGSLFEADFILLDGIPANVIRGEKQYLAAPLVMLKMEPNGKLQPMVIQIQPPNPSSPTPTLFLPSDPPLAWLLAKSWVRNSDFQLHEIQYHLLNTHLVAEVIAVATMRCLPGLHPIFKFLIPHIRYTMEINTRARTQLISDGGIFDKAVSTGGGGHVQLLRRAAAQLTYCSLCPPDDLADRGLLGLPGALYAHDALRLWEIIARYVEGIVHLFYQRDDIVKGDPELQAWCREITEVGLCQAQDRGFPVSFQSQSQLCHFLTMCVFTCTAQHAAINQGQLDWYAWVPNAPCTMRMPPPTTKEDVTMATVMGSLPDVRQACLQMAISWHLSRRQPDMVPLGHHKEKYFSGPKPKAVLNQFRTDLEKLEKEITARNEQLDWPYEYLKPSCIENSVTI"},
  "source": "PubChem BioAssay AID1671190",
  "about": "(National Center for Advancing Translational Sciences (NCATS), 2021)",
  "note": "In all, about 580,000 compounds went through this assay and about 6,100 (1.1%) were called active. Inconclusive means that the source gave no clear call. Such entries were picked first, then a sample of the others. Calls come from the whole dose curve; as a rule, active = well fitted inhibition curve with a large enough effect; inconclusive = small, poorly fitted or top-dose-only effect, or another doubt; inactive = no such curve, though single readings can be large or run the other way. A potency beside an inconclusive call is a rough fit, not a confirmed value. % is set by controls: 0 for no effect and ±100 for the full control effect; potency is the fitted concentration of half-maximal effect.",
  "data": [
    {"target": "Polyunsaturated fatty acid lipoxygenase ALOX12 (Homo sapiens) (UniProt P18054)", "test": "Primary qHTS assay for inhibitors of human arachidonate 12S-lipoxygenase (ALOX12): Round 2", "conditions": "purified 12hLO, xylenol orange hydroperoxide absorbance; activity change, negative = inhibition: at 108 µM (top of the series) unless noted", "how_it_was_run": "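Hydroperoxide product was detected by ferrous iron/xylenol orange as the 573 to 405 nm absorbance ratio. Arachidonic acid at 40 uM (final) was turned over for 30 min at room temperature by 150 nM human 12hLO, pH 7.0 Hepes buffer, after 15 min compound preincubation.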", "values": [
      {"smiles": "Cc1ccccc1Nc1c(-c2ccc(O)cc2)nc2c(C)cccn12", "Potency": "inconclusive: 100 µM [inhibitor, partial curve, poor fit]"},
      {"smiles": "O=C(c1ccc(F)c(F)c1)N1CCCc2ccccc21", "Potency": "inconclusive: 35.5 µM [inhibitor, single point]"},
      {"smiles": "O=C(NC1CCCCC1)C(c1cccnc1)N(C(=O)c1ccc(Cl)nc1)C1CCCCC1", "note": "(configuration not stated)", "Potency": "inactive"},
      {"smiles": "CC(C)CCSCC(=O)NCc1cccc(CN2CCCC2)c1", "Potency": "inactive"},
      {"smiles": "COc1ccc(NC(=O)CCS(=O)(=O)c2cc3c4c(c2)CCN4C(=O)CC3)cc1OC", "Potency": "inconclusive: 17.8 µM [inhibitor, full curve, poor fit]"},
      {"smiles": "CCCCCCOc1ccc(NC(=O)CC2C(=O)N(CC)C(=S)N2Cc2ccco2)cc1", "note": "(configuration not stated)", "Potency": "inconclusive: 50.1 µM [inhibitor, partial curve]"},
      {"smiles": "COc1ccc(N2CCN(C(c3cccc(OC)c3OC)c3nnnn3C3CCCC3)CC2)cc1", "note": "(configuration not stated)", "Potency": "inconclusive: 31.6 µM [inhibitor, full curve, poor fit]"},
      {"smiles": "CC(C)c1nc(NCCCN(C)C)c(C#N)c2c1CCCC2", "Potency": "inconclusive: 89.1 µM [inhibitor, partial curve, poor fit]"},
      {"smiles": "CCCCn1c(NS(=O)(=O)c2ccccc2)c(S(=O)(=O)c2ccc(C)cc2)c2nc3ccccc3nc21", "Potency": "inconclusive: 79.4 µM [inhibitor, single point]"},
      {"smiles": "COc1cccc(NC(=O)CCS(=O)(=O)c2cc3c(cc2Cl)NC(=O)CO3)c1", "Potency": "inactive"},
      {"smiles": "c1ccc2c(c1)oc1c(-c3ccc4nccn4c3)cccc12", "Potency": "inconclusive: 79.4 µM [inhibitor, partial curve, poor fit]"},
      {"smiles": "CC1CCN(c2nc(SCC(=O)N3CCOCC3)c(C#N)c3c2CCCC3)CC1", "Potency": "inactive"},
      {"smiles": "CC(O)[C@H]1CNC(=O)C(=O)N1CCc1cccc2ccccc12", "note": "(some centres not stated)", "Potency": "inconclusive: 31.6 µM [inhibitor, partial curve]"},
      {"smiles": "CC(=O)Oc1ccc(C(=O)[C@H]2[C@H]3C(=O)N(c4cccc5ccccc45)C(=O)[C@H]3[C@@H]3C=CC=NN32)cc1", "Potency": "inactive"},
      {"smiles": "C/C(=N\\NC(=S)Nc1ccc(C)cc1)c1cccc(N)c1", "Potency": "inconclusive: 50.1 µM [inhibitor, partial curve, poor fit]"},
      {"smiles": "CNC(=S)N(CCc1ccc(S(N)(=O)=O)cc1)C1CC(=O)N(c2ccccc2F)C1=O", "note": "(configuration not stated)", "Potency": "inconclusive: 89.1 µM [inhibitor, partial curve, poor fit]"},
      {"smiles": "O=Cc1cccc(-c2ccc(O)cc2)c1", "activity change, negative = inhibition": "inactive: 3.24% [at 12.5 µM]"},
      {"smiles": "COc1ccc(NC(=O)c2ccco2)cc1NC(=O)COc1cc(C)ccc1C(C)C", "Potency": "inactive"},
      {"smiles": "O=C(CN1C(=O)NC2(CCc3ccccc3C2)C1=O)NCc1ccco1", "note": "(configuration not stated)", "Potency": "inactive"},
      {"smiles": "CC(=O)N1c2ccccc2CC1C(=O)N1CCN(c2cc(Cl)ccc2C)CC1", "note": "(configuration not stated)", "Potency": "inconclusive: 158 µM [inhibitor, partial curve, poor fit]"},
      {"smiles": "COc1nc2ccccc2nc1N1CCC(C(=O)Nc2ccc(NC(C)=O)cc2)CC1", "Potency": "inconclusive: 35.5 µM [inhibitor, partial curve, poor fit]"},
      {"smiles": "COc1cccc(/C=C/c2nc3ccccc3c(=O)n2-c2ccc(C)c(C)c2)c1OC", "Potency": "inactive"},
      {"smiles": "Cc1nc(N)c(S(=O)(=O)c2ccccc2)c(Nc2ccc(Br)cc2)n1", "Potency": "inactive"},
      {"smiles": "O=c1c2ccccc2nc2n1C(CSCc1ccc(Cl)cc1)CS2", "note": "(configuration not stated)", "Potency": "inactive"},
      {"smiles": "CCN1c2cc(C(=O)Nc3ccccc3)ccc2C(=O)N2CCCCCC21", "note": "(configuration not stated)", "Potency": "inactive"},
      {"smiles": "Cc1ccc(Sc2ccc(CN3CCCCC3)cc2[N+](=O)[O-])cc1", "Potency": "inconclusive: 50.1 µM [inhibitor, partial curve, poor fit]"},
      {"smiles": "O=C(NC1CCCCC1)C(c1cccc2ccccc12)n1c(=O)c(-c2ccco2)nc2ccccc21", "note": "(configuration not stated)", "Potency": "active: 17.8 µM"},
      {"smiles": "O=C(CNc1cccc2ccccc12)N/N=C/C=C/c1ccco1", "Potency": "active: 31.6 µM"},
      {"smiles": "CCOc1ccc(N2C(=O)CC(NC3CCN(C(=O)c4cccc(Cl)c4)CC3)C2=O)cc1", "note": "(configuration not stated)", "Potency": "inconclusive: 35.5 µM [inhibitor, partial curve, poor fit]"},
      {"smiles": "O=C(c1ccc(F)cc1)N1CCN(CCc2ccncc2)CC1", "Potency": "inactive"},
      {"smiles": "COC(=O)c1cnn(-c2ccc(C(=O)Nc3ccc(Br)cc3F)cc2)c1N", "Potency": "inconclusive: 1.12 µM [inhibitor, full curve, poor fit]"},
      {"smiles": "COc1cc2nc(NC(=O)c3ccc(F)cc3)[nH]c(=O)c2cc1OC", "Potency": "inconclusive: 31.6 µM [inhibitor, single point]"},
      {"smiles": "CN1CCN(C(=S)Nc2ccc([N+](=O)[O-])cc2)CC1", "Potency": "inconclusive: 89.1 µM [inhibitor, single point]"},
      {"smiles": "CC1=CCCC(C)(C)C1/C=C/C(C)=N\\NC(=S)Nc1cccnc1", "note": "(configuration not stated)", "Potency": "inconclusive: 50.1 µM [inhibitor, partial curve, poor fit]"},
      {"smiles": "Cc1nc2sc(C(c3ccco3)N3CCN(C(c4ccccc4)c4ccccc4)CC3)c(O)n2n1", "note": "(configuration not stated)", "Potency": "inconclusive: 35.5 µM [inhibitor, partial curve, poor fit]"},
      {"smiles": "Nn1c(SCC(=O)N2CCCCC2)nnc1-c1ccncc1", "Potency": "inactive"},
      {"smiles": "COc1cc(CSc2c(CC(C)C)cnc3c2c(=O)n(C)c(=O)n3C)cc(OC)c1", "Potency": "inconclusive: 50.1 µM [inhibitor, partial curve, poor fit]"},
      {"smiles": "Cc1nn(S(=O)(=O)c2ccc(C(C)C)cc2)c(C)c1S(=O)(=O)N1CCCCC1", "Potency": "inconclusive: 39.8 µM [inhibitor, partial curve, poor fit]"},
      {"smiles": "COc1ccc(C(=O)N2CC[C@@H](CC(=O)O)[C@@H](CCN3CCCN(C(C)=O)CC3)C2)cc1", "Potency": "inconclusive: 15.8 µM [inhibitor, full curve, poor fit]"},
      {"smiles": "ONC(=Nc1ccc(Cl)cc1)c1ccc(Cl)cc1", "Potency": "inconclusive: 79.4 µM [inhibitor, single point]"},
      {"smiles": "Cc1ccc(NC(=O)CN2CC(C)SC2=NC2CCCCC2)cc1", "note": "(configuration not stated)", "Potency": "inconclusive: 50.1 µM [inhibitor, partial curve, poor fit]"},
      {"smiles": "Nc1nc2ccccc2n1/N=C/c1ccc([N+](=O)[O-])s1", "Potency": "inconclusive: 44.7 µM [inhibitor, partial curve, poor fit]"},
      {"smiles": "Cn1cccc1CN1CCC2(C1)C(=NC1CCCC1)NC(=O)N2c1cc(F)cc(F)c1", "note": "(configuration not stated)", "activity change, negative = inhibition": "inactive: 2.32% [at 6.33 µM]"},
      {"smiles": "Cc1ccc2nc(CSc3ccccc3NS(=O)(=O)c3c(C)noc3C)cc(=O)n2c1", "Potency": "inconclusive: 89.1 µM [inhibitor, single point]"},
      {"smiles": "COc1ccc2c(c1)OC[C@H]1[C@H]2N2C(=O)c3ccc(F)cc3NC(=O)[C@@]2(C)[C@H]1c1ccccc1", "Potency": "inactive"},
      {"smiles": "COC(=O)[C@@]12C[C@@H](CC(=O)NCCc3ccccc3OC)C(=O)N(CCc3ccc(OC)c(OC)c3)C1=CCC(C)(C)C2", "Potency": "inactive"},
      {"smiles": "O=C(c1ccc(Cl)cc1)C1CCN(C(=O)c2ccc(F)cc2)CC1", "Potency": "inactive"},
      {"smiles": "CCOc1cc(C(=O)NC2CCN(c3cc(-c4ccccc4)[nH]n3)CC2)cc(OCC)c1OCC", "Potency": "inactive"},
      {"smiles": "Cc1ccc(S(=O)(=O)N2CCCC2C(=O)Nc2nccs2)cc1", "note": "(configuration not stated)", "Potency": "inconclusive: 0.251 µM [inhibitor, full curve, poor fit]"},
      {"smiles": "CC(C)(C)c1ccc(-c2cc(C[C@H]3CNCC[C@H]3CC(=O)N3CCN(c4ccccn4)CC3)no2)cc1", "Potency": "inconclusive: 10 µM [inhibitor, full curve]"},
      {"smiles": "CC(C)NC(=S)NN=C1CCCCCC1", "Potency": "inactive"},
      {"smiles": "COc1ccc(/C=C/C(=O)CC(=O)c2cc(Cl)ccc2O)cc1", "Potency": "inconclusive: 0.316 µM [inhibitor, full curve, poor fit]"},
      {"smiles": "CC(C)c1ccc(S(=O)(=O)N2CCC(CC(=O)NCc3ccccc3)C2)cc1", "note": "(configuration not stated)", "Potency": "inactive"},
      {"smiles": "Cc1ccc2c(c1)N(CC(=O)NCCC1=CCCCC1)C(=O)c1cccnc1O2", "Potency": "active: 20 µM"},
      {"smiles": "Cc1ccc(C(NC(=O)CCl)C2CC2)cc1", "note": "(configuration not stated)", "Potency": "inconclusive: 28.2 µM [inhibitor, partial curve, poor fit]"},
      {"smiles": "Cc1cccc(-n2cnc3c(c2=O)c2nc4ccccc4nc2n3Cc2ccco2)c1", "Potency": "inconclusive: 79.4 µM [inhibitor, single point]"},
      {"smiles": "Cc1ccc(S(=O)(=O)O/N=C2\\CCCc3ccccc32)cc1", "Potency": "inconclusive: 17.8 µM [inhibitor, partial curve, poor fit]"},
      {"smiles": "Fc1ccc(NC(=S)NN2CCOCC2)cc1Cl", "Potency": "inactive"},
      {"smiles": "COc1ccc(NC(=O)c2ccc(=O)oc2)cc1", "Potency": "inconclusive: 44.7 µM [inhibitor, partial curve, poor fit]"},
      {"smiles": "C1=CC2CC1CC2CN1CCN(Cc2ccccc2)CC1", "note": "(configuration not stated)", "Potency": "inconclusive: 0.891 µM [inhibitor, full curve, poor fit]"},
      {"smiles": "Cc1ccc2c(c1)C(c1ccccc1)N(C(=O)c1ccc(Br)o1)CC(=O)N2", "note": "(configuration not stated)", "Potency": "inconclusive: 56.2 µM [inhibitor, partial curve, poor fit]"},
      {"smiles": "CC1CCN(Cc2ccc(C(=O)O)cc2)CC1", "Potency": "inconclusive: 44.7 µM [inhibitor, partial curve, poor fit]"},
      {"smiles": "O=C(CSc1cn[nH]n1)Nc1cccc(C(=O)O)c1", "Potency": "inactive"},
      {"smiles": "Cc1c(C)c(C)c(/C=[N+](/C)[O-])c(C)c1C", "Potency": "inconclusive: 0.224 µM [inhibitor, full curve, poor fit]"},
      {"smiles": "Cc1noc(C)c1-c1cc(N2CCNCC2)ncn1", "Potency": "inconclusive: 39.8 µM [inhibitor, partial curve, poor fit]"},
      {"smiles": "Cc1cccc2c(C3CCN(C(=O)c4c(Cl)cc(Cl)cc4Cl)CC3)c[nH]c12", "Potency": "inconclusive: 7.94 µM [inhibitor, full curve]"},
      {"smiles": "CC(C)c1ccc(-c2c(NCCc3ccccc3)c(=O)c2=O)cc1", "Potency": "inconclusive: 7.08 µM [inhibitor, single point]"}
    ]}
  ]
}
